Primary screen of a compound library

Amino acid sequences for entries named in this document (tags omitted). Residues count along the entry.
UniProt A4I591, 1-473: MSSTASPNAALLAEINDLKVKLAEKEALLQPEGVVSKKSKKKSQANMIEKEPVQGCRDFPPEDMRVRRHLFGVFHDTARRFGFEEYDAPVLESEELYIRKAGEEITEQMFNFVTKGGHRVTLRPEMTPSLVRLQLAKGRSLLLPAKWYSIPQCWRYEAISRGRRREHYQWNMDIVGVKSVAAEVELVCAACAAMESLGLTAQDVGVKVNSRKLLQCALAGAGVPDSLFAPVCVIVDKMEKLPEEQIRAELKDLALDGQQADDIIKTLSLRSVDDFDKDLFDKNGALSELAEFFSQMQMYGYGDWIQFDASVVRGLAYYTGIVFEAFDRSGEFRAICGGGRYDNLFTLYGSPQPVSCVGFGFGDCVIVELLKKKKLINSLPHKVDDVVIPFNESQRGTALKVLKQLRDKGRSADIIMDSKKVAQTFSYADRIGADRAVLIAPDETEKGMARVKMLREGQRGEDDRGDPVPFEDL
UniProt Q8IDJ8, 1-583: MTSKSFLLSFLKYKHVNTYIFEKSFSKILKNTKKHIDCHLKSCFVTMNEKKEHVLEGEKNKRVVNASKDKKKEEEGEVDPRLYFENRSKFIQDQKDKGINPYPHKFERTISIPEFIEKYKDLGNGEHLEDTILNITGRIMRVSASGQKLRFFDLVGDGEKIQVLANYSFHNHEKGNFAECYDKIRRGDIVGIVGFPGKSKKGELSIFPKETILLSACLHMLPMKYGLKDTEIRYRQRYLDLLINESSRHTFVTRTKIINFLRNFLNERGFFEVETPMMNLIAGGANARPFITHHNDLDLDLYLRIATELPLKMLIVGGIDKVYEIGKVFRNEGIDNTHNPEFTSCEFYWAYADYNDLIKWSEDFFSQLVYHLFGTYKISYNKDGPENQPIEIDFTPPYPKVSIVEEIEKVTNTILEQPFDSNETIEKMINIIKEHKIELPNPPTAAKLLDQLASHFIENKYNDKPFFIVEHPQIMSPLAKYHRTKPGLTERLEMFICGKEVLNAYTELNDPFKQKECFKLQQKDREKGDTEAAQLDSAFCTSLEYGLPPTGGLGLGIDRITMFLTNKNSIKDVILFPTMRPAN
UniProt Q4DA54, 1-478: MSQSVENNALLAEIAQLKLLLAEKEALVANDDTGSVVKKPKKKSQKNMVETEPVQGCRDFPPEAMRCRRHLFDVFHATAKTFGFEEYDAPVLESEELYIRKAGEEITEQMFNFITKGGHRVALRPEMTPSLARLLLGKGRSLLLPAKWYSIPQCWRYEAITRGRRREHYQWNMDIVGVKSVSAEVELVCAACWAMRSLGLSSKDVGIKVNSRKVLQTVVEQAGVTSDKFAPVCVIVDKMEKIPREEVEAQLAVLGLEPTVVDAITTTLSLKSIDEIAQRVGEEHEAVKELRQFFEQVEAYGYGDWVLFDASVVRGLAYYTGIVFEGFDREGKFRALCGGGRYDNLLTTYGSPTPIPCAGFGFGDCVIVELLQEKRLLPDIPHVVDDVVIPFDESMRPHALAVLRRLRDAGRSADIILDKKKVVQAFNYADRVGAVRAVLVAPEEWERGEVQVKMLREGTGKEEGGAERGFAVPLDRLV

LiHisRS: 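Histidine-tRNA ligase, Leishmania infantum (UniProt A4I591). Enzyme assay of histidyl-tRNA synthetase; the read-out is not stated. Tested at 30 µM. Higher reads as stronger inhibition (inferred: compounds with an IC50 in retests scored well above the rest). The assay is labelled LdHisRS but filed under L. infantum. Of about 69,000 compounds tested this way, about 410 (0.6%) reached 50% or more in at least one test.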
PfKRS1: 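Lysine-tRNA ligase, Plasmodium falciparum 3D7 (UniProt Q8IDJ8). Enzyme assay of the cytosolic lysyl-tRNA synthetase in 384-well plates, read by luminescence. Tested at 30 µM. Higher reads as stronger inhibition, judged from the few compounds that gave an IC50. About 69,000 compounds were tested under these conditions; 0.071% (about 49) showed 50% or more at least once.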
TcHisRS: 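Histidine-tRNA ligase, Trypanosoma cruzi CL Brener (UniProt Q4DA54). Enzyme assay of histidyl-tRNA synthetase; the read-out is not stated. Concentration: 30 µM. Direction is inferred from retests: higher values go with stronger inhibition. Of about 69,000 compounds tested this way, about 31 (0.045%) reached 50% or more in at least one test.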

The filed quantity is “Percent Effect” (%).
The controls that fix the scale are not given in the record; negative values are as filed.
The compounds are a random part of those screened.

O=C(Nc1ccc(Cl)cn1)C1CCCN(CCc2ccccn2)C1 (stereo unspecified) read LiHisRS: -7.692%; PfKRS1: -5.039%; TcHisRS: 10%.
CNc1cc(N2CCCC2CNCc2csc(C(C)C)n2)ncn1 (stereo unspecified) read LiHisRS: 1.835%; PfKRS1: 1.054%; TcHisRS: 4.118%.
CN1CCN(C(=O)c2n[nH]c3c2CN(C2CCOC2)CC3)CC1 (stereo unspecified) read LiHisRS: 7.692%; PfKRS1: 1.426%; TcHisRS: 2.913%.
CCCS(=O)(=O)CC(=O)Nc1cc(CC(C)(C)C)n[nH]1 read LiHisRS: 6.306%; PfKRS1: 7.079%; TcHisRS: 6.667%.
Cc1cc(C(=O)NCC2CCS(=O)(=O)C2)ccc1NC(=O)c1ccco1 (stereo unspecified) read LiHisRS: -1.064%; PfKRS1: 0.0704%; TcHisRS: 5.051%.
CCn1cc(NC(=O)C(C)n2ncc(Cl)c2C)c(C(=O)NC)n1 (stereo unspecified) read LiHisRS: 2.655%; PfKRS1: 3.198%; TcHisRS: 3.097%.
COc1ccc2[nH]c(=O)c(CN(C)CCN3CCCC3)cc2c1 read LiHisRS: 24.17%; PfKRS1: 2.506%; TcHisRS: 3.865%.
Cn1cccc1C(=O)NC[C@]12COC[C@H]1CN(Cc1nccs1)C2 read LiHisRS: 12.82%; PfKRS1: 4.758%; TcHisRS: 6.098%.
O=C(Cc1ccc2c(c1)OCCO2)NC1CCN(CC(F)F)CC1 read LiHisRS: 13.7%; PfKRS1: -2.075%; TcHisRS: 0.7634%.
CC(C)(C)S(=O)(=O)CCNC(=O)NCCCc1cccc(F)c1 read LiHisRS: -3.306%; PfKRS1: -0.7087%; TcHisRS: 6.122%.
COCC(=O)N1CC(c2csc(NC(C)=O)n2)C1 read LiHisRS: 4.828%; PfKRS1: 0.3647%; TcHisRS: 3.042%.
CC(C)CC(CNC(=O)c1cccnc1Oc1cccnc1)N(C)C (stereo unspecified) read LiHisRS: 6.452%; PfKRS1: -2.458%; TcHisRS: 5.155%.
COc1ccccc1S(=O)(=O)N1CC(N(C)C)Cc2ccccc21 (stereo unspecified) read LiHisRS: -1.613%; PfKRS1: -2.7%; TcHisRS: -2.062%.
Cn1ccc(NC(=O)Cc2ccccc2F)n1 read LiHisRS: -3.371%; PfKRS1: -2.69%; TcHisRS: 3.627%.
COc1cc(Br)c(S(=O)(=O)NC(=O)C(C)OC)cc1OC (stereo unspecified) read LiHisRS: 15.5%; PfKRS1: 7.359%; TcHisRS: 5.952%.
Cc1noc(CCCC(=O)N2CCCC2c2ccsc2)n1 (stereo unspecified) read LiHisRS: 8.475%; PfKRS1: 3.617%; TcHisRS: 2.286%.
Cc1noc(CCNC(=O)c2ccc(N(C)C)c(F)c2)n1 read LiHisRS: 10.92%; PfKRS1: 0.7748%; TcHisRS: 2.941%.
CCC(c1ccccc1)c1nn2c(CN(CC)CC)nnc2s1 (stereo unspecified) read LiHisRS: 8.046%; PfKRS1: 4.253%; TcHisRS: 9.278%.
OC1(CNc2ccccc2)CCNCC1 read LiHisRS: 16.67%; PfKRS1: 5.66%; TcHisRS: 10.42%.
CCN(c1ccc(C(=O)NCCN2CCOCC2)cc1)S(=O)(=O)CC read LiHisRS: 12.5%; PfKRS1: 2.03%; TcHisRS: 3.727%.
CCc1cc(N2CCC(N3CCSCC3)CC2)n2nccc2n1 read LiHisRS: 14.75%; PfKRS1: 5.789%; TcHisRS: 13.6%.
COCCN1CCO[C@H]2CN(C(=O)c3ccncc3F)C[C@H]21 read LiHisRS: 10.26%; PfKRS1: -0.03506%; TcHisRS: 6.135%.
COc1ccc(C(=O)N2CCC(C3CCN(c4ncccn4)CC3)C2)o1 (stereo unspecified) read LiHisRS: 19.35%; PfKRS1: 0.6559%; TcHisRS: 3.704%.
O=C(COc1ccc(-n2cccn2)nn1)N1CCCC1 read LiHisRS: 4%; PfKRS1: 7.321%; TcHisRS: 3.704%.

For reference, 3 entries once more:

{"compound": "Cn1ccc(NC(=O)Cc2ccccc2F)n1", "LiHisRS": -3.371, "PfKRS1": -2.69, "TcHisRS": 3.627}
{"compound": "OC1(CNc2ccccc2)CCNCC1", "LiHisRS": 16.67, "PfKRS1": 5.66, "TcHisRS": 10.42}
{"compound": "CCn1cc(NC(=O)C(C)n2ncc(Cl)c2C)c(C(=O)NC)n1", "stereo": "stereo unspecified", "LiHisRS": 2.655, "PfKRS1": 3.198, "TcHisRS": 3.097}

Source: ChEMBL document CHEMBL3988442, “University of Dundee, Small-Polar-MMV Screening Library” (2021).